In patent publication US8034819B2, “Glucokinase activator” (Kyorin Pharmaceutical Co., Ltd., priority 2007, dated 2011):
Some results were stated once for a whole list of compounds, not compound by compound. At least one compound was matched to its structure with a doubt left.

What was measured:
human liver GK = molecular target: T1, human liver GK (Homo sapiens, UniProt P35557); assay: Measurement of GK activity (NADH produced by G6PDH-coupled reaction); type: biochemical; conditions: at 10 μM, compared with the wells that did not contain such compound; 5 mM D-glucose, 25° C.
T1 construct: His6 (C); made in house; host or cells: E. coli
T1 sequence (P35557 1-466 isoform P35557-2): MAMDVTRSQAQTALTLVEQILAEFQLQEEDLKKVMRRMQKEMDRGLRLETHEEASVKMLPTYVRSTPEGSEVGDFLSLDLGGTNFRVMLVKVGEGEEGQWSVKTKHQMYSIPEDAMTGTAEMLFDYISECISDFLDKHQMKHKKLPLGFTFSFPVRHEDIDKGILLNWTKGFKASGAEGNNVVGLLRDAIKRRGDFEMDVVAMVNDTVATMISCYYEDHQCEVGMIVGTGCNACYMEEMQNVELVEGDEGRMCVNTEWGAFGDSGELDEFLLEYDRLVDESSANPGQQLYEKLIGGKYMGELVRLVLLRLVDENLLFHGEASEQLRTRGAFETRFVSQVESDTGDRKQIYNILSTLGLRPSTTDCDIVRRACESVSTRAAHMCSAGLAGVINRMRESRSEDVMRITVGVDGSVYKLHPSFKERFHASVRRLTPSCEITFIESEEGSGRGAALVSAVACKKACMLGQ

ICR mice = assay: Hypoglycemic activity test; type: in vivo; conditions: orally administered 30 mg/kg, average of the decrease in glucose at 0.5, 2 and 4 hours with respect to the pre-value
Experimental: Using ICR mice (male, 7 to 9 weeks, Charles River Laboratories Japan Inc.) the effects of each of the tested compounds on blood glucose levels were measured. Each compound was dissolved in a mixture of 60/40 of Gelucire 44/14 (trade name, manufactured by Gatefosse) and PEG 400, and the resulting mixture was orally administered (30 mg/kg, 10 mL/kg) to the mice, which had not been fed for two hours. Blood was collected by a blood collection tube coated with dipotassium ethylenediamine tetraacetate from the tail vein before administration (pre-value) and at points 0.5, 2, and 4 hours after administration. The collected blood was separated by centrifugation (4° C., 3,600×g, 3 minutes), to obtain blood plasma samples.
Each sample was diluted 5-fold with physiological saline, and the blood glucose level was measured using glucose CII-test Wako (trade name, manufactured by Wako Pure Chemical Industries Ltd.). […] Measurement was carried out at OD 505 nm using an En Vision 2103 Multilabel Reader (trade name, manufactured by PerkinElmer). The decrease in Σ glucose from the decrease in glucose of each collected point with respect to the pre-value (average of the decrease in glucose of each collected point with respect to the pre-value) was calculated.

Row | Structure (SMILES) | human liver GK-activating effect (human liver GK) [%] | decrease in Σ glucose (ICR mice) [%]
1 | O=C(Nc1ccn(CC(F)(F)F)n1)C(CC1CC(F)C(F)C1)c1ccc(S(=O)(=O)C2CC2)cc1 (stereo not drawn) [Compound 14, 2-[4-(cyclopropylsulfonyl)phenyl]-3-[(1α,3α,4α)-3,4-difluorocyclopentyl]-N-[1-(2,2,2-trifluoroethyl)-1H-pyrazol-3-yl)propionamide] | ≥ 200 | –
2 | CCOC(=O)C(C)(C)Sc1ccc(NC(=O)C(CC2CC(F)C(F)C2)c2ccc(S(=O)(=O)C3CC3)cc2)nc1 [Compound 37, ethyl 2-{6-[(R)-2-[4-(cyclopropylsulfonyl)phenyl]-3-[(1α,3α,4α)-3,4-difluorocyclopentyl]propionamide]pyridin-3-ylthio}-2-methylpropionate] | ≥ 200 | –
3 | CCn1ccc(NC(=O)C(CC2CC(F)C(F)C2)c2ccc(S(=O)(=O)C3CC3)cc2)n1 (stereo not drawn) [Compound 7, 2-[4-(cyclopropylsulfonyl)phenyl]-3-[(1α,3α,4α)-3,4-difluorocyclopentyl]-N-(1-ethyl-1H-pyrazol-3-yl)propionamide] | ≥ 200 | –
4 | O=C(Nc1ncns1)C(CC1CC(F)C(F)C1)c1ccc(S(=O)(=O)C2CC2)cc1 [Compound 34, (R)-2-[4-(cyclopropylsulfonyl)phenyl]-3-[(1α,3α,4α)-3,4-difluorocyclopentyl]-N-(1,2,4-thiazol-5-yl)propionamide] | ≥ 200 | ≥ 35
